Reference: PubChem BioAssay AID445 (National Center for Advancing Translational Sciences (NCATS), 2006)
The other results are listed elsewhere or left out. Shown are side measurements of this screen, not its main read-out; they come without a call. The list favours compounds with an active or inconclusive main result. Words in brackets tell the shape of the fitted curve; partial curves, single points and poor fits give uncertain potencies.

Test: IkB Signaling
Conditions: ABC-DLBCL IkBa-CBG/CBR dual luciferase ratio (green luciferase fused to IkBa over red control in OCI-Ly3 lymphoma cells), 4 h
Procedure, shortened: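 Luminescence ratio of IκBα-fused green versus native red beetle luciferase in OCI-Ly3 cells, 4 h post-doxycycline with compound; red signal alone, scaled from basal (0%) to zero light (-100%), flagged nonspecific or cytotoxic effects.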

[1] = measured here: control luc red channel
[2] = measured here: IkB-luc green channel

SMILES | AC50 [1] | AC50 [2]
COc1ccc(NC(=O)CCc2nc(C3=CCN(Cc4cccc(Cl)c4)CC3)no2)c(OC)c1 | 39.8 µM [falling, single point] | 
C[C@H]1CCCC=CC2C[C@H](O)C[C@@H]2[C@H](O)/C=C\C(=O)O1 (some centres undefined) | 0.0251 µM [falling, full curve] | 
Cc1ccccc1OCC(=O)N1CCN(CCc2ccccn2)CC1 | 5.01 µM [falling, partial curve] | 
CC(C)CC(C)Nc1ccc(Nc2ccccc2)cc1 (centres undefined) | 31.6 µM [falling, partial curve, poor fit] | 
CN(C)c1ccc(N=Nc2ccccc2)cc1 | 12.6 µM [falling, partial curve] | 
Cc1ccccc1-n1c(/C=C/c2c(C)[nH]c3ccccc23)nc2ccccc2c1=O | 7.94 µM [falling, partial curve] | 
NC[C@@H](CC(=O)O)c1ccc(Cl)cc1 |  | 2 µM [rising, full curve]
COc1ccc(OCC(=O)N2CCN(CCc3ccncc3)CC2)cc1 | 0.1 µM [falling, full curve, poor fit] | 
CC(C)(c1ccc(OCC2CO2)cc1)c1ccc(OCC2CO2)cc1 (centres undefined) | 12.6 µM [falling, partial curve] | 31.6 µM [rising, partial curve]
CC[C@@](O)(C(=O)O)c1cc2n(c(=O)c1CO)Cc1cc3ccccc3nc1-2 | 3.16 µM [falling, single point] | 
CN1CCN(c2ccc([N+](=O)[O-])c3[nH]o[n+](=O)c23)CC1 | 6.31 µM [falling, single point] | 
Cc1c(C(c2ccc(Br)cc2)c2c(O)c3ccccc3oc2=O)c(=O)n(-c2ccccc2)n1C (centres undefined) | 7.94 µM [falling, partial curve] | 
C=C(C)CN1CC[C@@]23c4c5ccc(O)c4O[C@H]2c2[nH]c4ccccc4c2C[C@]3(O)[C@@H]1C5 | 39.8 µM [falling, single point] | 
CC(=O)c1ccccc1NC(=O)C1C2CCC(O2)C1C(=O)O (centres undefined) |  | 25.1 µM [rising, single point]
Fc1ccc(C(OCCN2CCN(CCCc3ccccc3)CC2)c2ccc(F)cc2)cc1 | 39.8 µM [falling, partial curve] | 
CN1CCC(O)(c2ccccc2)C(C(=O)c2ccccc2)C1 (centres undefined) | 31.6 µM [falling, partial curve] | 
C=C(C)[C@H]1Cc2c(ccc3c2O[C@@H]2COc4cc(OC)c(OC)cc4[C@@H]2C3=O)O1 |  | 3.98 µM [rising, partial curve]
NNC(=O)c1ccc(O)cc1 | 0.794 µM [falling, full curve] | 
